The assay concerns the target human GPC3 (Glypican-3) (human, UniProt P51654 25-580). Description: FACS on GPC3-CHO-K1, HepG2 and Huh-7 cells.

By UniProt entry, the sequences of proteins in these tests, tags left out. Where a name states a change or a piece, a line headed by the entry shows the natural chain unless it says otherwise.
UniProt P51654: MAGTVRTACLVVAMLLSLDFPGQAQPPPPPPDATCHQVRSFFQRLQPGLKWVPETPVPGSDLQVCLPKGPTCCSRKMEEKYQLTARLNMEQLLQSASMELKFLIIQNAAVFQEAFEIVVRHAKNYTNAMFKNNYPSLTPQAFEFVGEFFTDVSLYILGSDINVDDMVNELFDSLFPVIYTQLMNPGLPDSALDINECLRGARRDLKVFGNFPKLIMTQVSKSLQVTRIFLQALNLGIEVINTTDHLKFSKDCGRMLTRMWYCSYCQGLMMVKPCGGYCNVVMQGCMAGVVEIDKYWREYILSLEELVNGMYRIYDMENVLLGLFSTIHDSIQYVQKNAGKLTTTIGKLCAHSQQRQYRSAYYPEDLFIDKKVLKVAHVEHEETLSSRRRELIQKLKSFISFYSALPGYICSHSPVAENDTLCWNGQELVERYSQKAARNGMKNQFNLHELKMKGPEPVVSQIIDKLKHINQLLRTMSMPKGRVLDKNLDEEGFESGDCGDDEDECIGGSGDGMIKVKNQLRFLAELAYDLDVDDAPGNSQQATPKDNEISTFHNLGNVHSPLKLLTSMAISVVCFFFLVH

Changes are numbered by the printed parent chain. No constants are given. Whether binding was seen depends on the method and setting. Binding calls can cover weak binding; strength is not graded here.

B1: Hu 52H5D3B8-7 (antibody, human IgG1, kappa, V domains shown)
VH: EVQLVQSGAEVKKPGASVKVSCKASGYTFTDYEMHWVRQAPGQGLEWMGAIHPGSGGTAYNQKFKGRVTMTADKSISTAYMELSRLRSDDTAVYYCTRFYSYAYWGQGTLVTVSS
VL: DVVMTQTPLSLSVTPGQPASISCRSSQSLVHSNGNTYLQWYLQKPGQSPQLLIYKVSNRFSGVPDRFSGSGSGTDFTLKISRVEAEDVGVYYCSQSIHVPYTFGGGTKVEIKR
notes: also called humanized GPC3 antibody Hu 52H5D3B8-7
Consider B1, for which the binding entry was “binds”.

B2: Y035 CDRs with Hu 52H5D3B8-7 FRs (antibody, V domains shown)
VH: B1 VH with G57D, K63R
VL: DVVMTQTPLSLSVTPGQPASISCRSSQSLVHSNGNTYLQWYLQKPGQSPQLLIYKVSNRFSGVPDRFSGSGSGTDFTLKISRVEAEDVGVYYCSQSIYVPYTFGGGTKVEIK
notes: detected with anti-human IgG
For the molecule B2, the binding entry is given as “binds”.
